These are yes or no findings as the source states them, for the method shown. For part of these data: Binding seen in cells or lysates may run through a third protein. Some entries that bind do so weakly or less than the wild type. For part of these data: Sequences can lack the tags named with a protein.
Tests used:
His-HDAC2, recombinant = His-HDAC2, recombinant (UniProt Q92769); assay: SPR; OpenSPR (Nicoya), 25 °C; His-HDAC proteins immobilised on an NTA sensor chip (~16000 RU), GST-PFKL injected as analyte; PBS-P buffer (10 mM phosphate, 137 mM NaCl, 2.7 mM KCl, 0.05% surfactant P20); 20 μL/min, 240 s contact, 360 s dissociation; 1:1 binding model; both purified
His-HDAC3, recombinant = His-HDAC3, recombinant (UniProt O15379); assay: as above
His-HDAC8, recombinant = target: T1, His-HDAC8, recombinant (UniProt Q9BY41); assay: as above
T1 sequence: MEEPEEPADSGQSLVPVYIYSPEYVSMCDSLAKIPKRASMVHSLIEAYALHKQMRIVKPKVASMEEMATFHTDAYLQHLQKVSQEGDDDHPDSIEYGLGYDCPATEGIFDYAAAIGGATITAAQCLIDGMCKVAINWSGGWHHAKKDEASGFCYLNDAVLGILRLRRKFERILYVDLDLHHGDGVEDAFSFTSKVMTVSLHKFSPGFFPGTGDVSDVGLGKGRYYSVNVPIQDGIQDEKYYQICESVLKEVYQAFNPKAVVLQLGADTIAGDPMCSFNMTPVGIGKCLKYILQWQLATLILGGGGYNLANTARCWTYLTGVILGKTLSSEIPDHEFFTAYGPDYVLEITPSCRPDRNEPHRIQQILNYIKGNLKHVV

Chains of the proteins cited; added tags and fusions are not shown. Lines headed by an entry give the natural chain unless they say otherwise; changes in a name come on top. A line that says so, or that is headed by a name, gives the form on record, which may keep a tag or linker. Residues count along the entry.
UniProt Q92769: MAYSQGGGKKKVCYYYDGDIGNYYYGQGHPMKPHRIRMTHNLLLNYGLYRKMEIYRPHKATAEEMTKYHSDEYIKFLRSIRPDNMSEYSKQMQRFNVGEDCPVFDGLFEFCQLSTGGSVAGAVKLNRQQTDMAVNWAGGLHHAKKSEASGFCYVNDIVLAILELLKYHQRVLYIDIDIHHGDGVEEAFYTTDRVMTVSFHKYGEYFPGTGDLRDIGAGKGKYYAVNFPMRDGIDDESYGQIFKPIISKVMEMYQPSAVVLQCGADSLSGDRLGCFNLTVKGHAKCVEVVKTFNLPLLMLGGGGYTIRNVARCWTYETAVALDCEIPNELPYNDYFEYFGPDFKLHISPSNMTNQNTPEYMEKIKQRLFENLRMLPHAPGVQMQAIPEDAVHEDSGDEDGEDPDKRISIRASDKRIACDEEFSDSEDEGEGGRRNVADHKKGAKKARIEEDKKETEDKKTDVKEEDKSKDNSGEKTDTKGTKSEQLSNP
UniProt O15379: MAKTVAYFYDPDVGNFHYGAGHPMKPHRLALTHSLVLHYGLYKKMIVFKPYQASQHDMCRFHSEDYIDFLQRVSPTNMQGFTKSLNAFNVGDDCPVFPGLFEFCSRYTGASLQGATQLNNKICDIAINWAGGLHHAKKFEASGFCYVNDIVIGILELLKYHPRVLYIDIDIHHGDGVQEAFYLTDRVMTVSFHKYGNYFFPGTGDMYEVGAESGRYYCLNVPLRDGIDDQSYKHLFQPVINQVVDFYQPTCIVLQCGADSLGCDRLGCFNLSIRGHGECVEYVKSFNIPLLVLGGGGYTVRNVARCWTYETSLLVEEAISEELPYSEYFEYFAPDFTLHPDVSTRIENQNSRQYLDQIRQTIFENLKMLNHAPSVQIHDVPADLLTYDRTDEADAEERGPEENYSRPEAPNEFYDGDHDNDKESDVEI
UniProt Q13547: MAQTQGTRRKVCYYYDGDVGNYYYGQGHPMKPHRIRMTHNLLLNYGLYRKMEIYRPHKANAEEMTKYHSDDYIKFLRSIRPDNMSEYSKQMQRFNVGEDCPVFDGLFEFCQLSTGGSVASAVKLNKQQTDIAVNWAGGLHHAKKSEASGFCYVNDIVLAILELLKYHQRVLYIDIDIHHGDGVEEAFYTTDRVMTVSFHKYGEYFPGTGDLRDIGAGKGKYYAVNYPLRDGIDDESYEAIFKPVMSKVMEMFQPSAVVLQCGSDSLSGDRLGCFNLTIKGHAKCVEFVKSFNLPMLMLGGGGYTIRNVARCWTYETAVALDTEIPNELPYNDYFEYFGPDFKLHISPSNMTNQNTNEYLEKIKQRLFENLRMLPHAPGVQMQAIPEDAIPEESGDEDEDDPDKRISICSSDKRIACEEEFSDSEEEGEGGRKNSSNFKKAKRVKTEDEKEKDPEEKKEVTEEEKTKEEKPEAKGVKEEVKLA
Flag-tagged truncated HDAC1, H1 region (aa 1-321): residues 1-321 of Q13547
Flag-tagged truncated HDAC1, H4 region (aa 170-321): residues 170-321 of Q13547
Flag-tagged truncated HDAC1, H5 region (aa 183-321): residues 183-321 of Q13547

[1] = target: Flag-tagged truncated HDAC1, H5 region (aa 183-321) (human) (UniProt Q13547); assay: co-IP; MYC-tagged PFKL and Flag-tagged HDAC1 (full length, truncated or mutant) co-transfected in HEK293T cells; lysis buffer 150 mM NaCl, 25 mM Tris-HCl, 0.5% NP-40
[2] = target: Flag-tagged truncated HDAC1, H1 region (aa 1-321) (human) (UniProt Q13547); assay: as above
[3] = target: Flag-tagged truncated HDAC1, H4 region (aa 170-321) (human) (UniProt Q13547); assay: as above
[4] = target: Flag-tagged HDAC1, full length, wild type (human) (UniProt Q13547); assay: as above
[5] = target: T2, PFKL, endogenous in TFK1 cells (human (endogenous in TFK1)) (UniProt P17858); assay: co-IP; endogenous PFKL and class I HDACs in TFK1 whole-cell lysates and nuclear lysates
T2 sequence: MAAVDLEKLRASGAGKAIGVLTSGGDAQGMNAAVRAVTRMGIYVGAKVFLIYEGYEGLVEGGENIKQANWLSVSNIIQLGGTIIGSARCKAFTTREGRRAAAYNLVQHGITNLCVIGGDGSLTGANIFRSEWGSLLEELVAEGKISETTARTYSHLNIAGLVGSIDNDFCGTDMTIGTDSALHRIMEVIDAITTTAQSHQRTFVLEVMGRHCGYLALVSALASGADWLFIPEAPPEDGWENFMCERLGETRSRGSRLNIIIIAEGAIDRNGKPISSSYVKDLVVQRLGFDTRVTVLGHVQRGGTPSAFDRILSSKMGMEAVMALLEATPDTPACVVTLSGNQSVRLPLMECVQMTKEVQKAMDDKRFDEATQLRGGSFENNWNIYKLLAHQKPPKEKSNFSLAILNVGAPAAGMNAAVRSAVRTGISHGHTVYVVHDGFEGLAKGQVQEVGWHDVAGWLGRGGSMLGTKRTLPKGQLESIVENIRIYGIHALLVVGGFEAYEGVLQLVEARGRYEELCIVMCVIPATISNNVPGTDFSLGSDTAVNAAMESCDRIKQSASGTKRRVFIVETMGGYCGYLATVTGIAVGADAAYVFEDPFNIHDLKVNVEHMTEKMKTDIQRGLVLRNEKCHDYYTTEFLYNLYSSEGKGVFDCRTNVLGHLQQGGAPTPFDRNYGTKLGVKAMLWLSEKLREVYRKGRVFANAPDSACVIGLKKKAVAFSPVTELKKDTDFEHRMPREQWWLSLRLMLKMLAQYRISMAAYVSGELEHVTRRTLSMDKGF

[6] = target: T3, Flag-tagged PFKL (liver-type phosphofructokinase), expressed in TFK1 cells (human) (UniProt P17858); assay: co-IP; Flag-tagged PFKL in TFK1 cells, blots for zinc-dependent HDACs; lysis buffer 150 mM NaCl, 25 mM Tris-HCl, 0.5% NP-40; anti-FLAG-M2 magnetic beads
T3 sequence: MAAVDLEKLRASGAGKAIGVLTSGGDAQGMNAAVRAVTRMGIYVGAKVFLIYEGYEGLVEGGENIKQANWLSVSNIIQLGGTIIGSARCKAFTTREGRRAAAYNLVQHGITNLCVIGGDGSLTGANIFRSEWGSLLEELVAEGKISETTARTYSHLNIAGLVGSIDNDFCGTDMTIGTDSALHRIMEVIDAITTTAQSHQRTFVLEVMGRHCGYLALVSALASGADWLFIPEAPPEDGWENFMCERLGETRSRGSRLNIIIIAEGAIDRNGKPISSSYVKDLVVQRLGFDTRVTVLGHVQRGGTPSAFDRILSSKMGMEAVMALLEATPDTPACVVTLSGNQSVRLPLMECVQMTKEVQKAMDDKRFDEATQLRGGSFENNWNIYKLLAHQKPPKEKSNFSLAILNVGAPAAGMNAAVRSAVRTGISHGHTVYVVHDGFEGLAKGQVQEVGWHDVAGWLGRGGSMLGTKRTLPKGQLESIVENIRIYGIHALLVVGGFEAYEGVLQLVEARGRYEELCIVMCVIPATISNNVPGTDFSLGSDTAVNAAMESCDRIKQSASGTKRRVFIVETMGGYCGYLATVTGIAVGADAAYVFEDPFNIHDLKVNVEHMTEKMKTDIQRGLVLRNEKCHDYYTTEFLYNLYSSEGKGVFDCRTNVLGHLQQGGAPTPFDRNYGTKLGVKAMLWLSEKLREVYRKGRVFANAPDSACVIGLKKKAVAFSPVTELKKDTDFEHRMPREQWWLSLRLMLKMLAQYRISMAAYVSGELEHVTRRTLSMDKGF

B1: GST-PFKL, recombinant (enzyme, UniProt P17858 1-780)
chain: MAAVDLEKLRASGAGKAIGVLTSGGDAQGMNAAVRAVTRMGIYVGAKVFLIYEGYEGLVEGGENIKQANWLSVSNIIQLGGTIIGSARCKAFTTREGRRAAAYNLVQHGITNLCVIGGDGSLTGANIFRSEWGSLLEELVAEGKISETTARTYSHLNIAGLVGSIDNDFCGTDMTIGTDSALHRIMEVIDAITTTAQSHQRTFVLEVMGRHCGYLALVSALASGADWLFIPEAPPEDGWENFMCERLGETRSRGSRLNIIIIAEGAIDRNGKPISSSYVKDLVVQRLGFDTRVTVLGHVQRGGTPSAFDRILSSKMGMEAVMALLEATPDTPACVVTLSGNQSVRLPLMECVQMTKEVQKAMDDKRFDEATQLRGGSFENNWNIYKLLAHQKPPKEKSNFSLAILNVGAPAAGMNAAVRSAVRTGISHGHTVYVVHDGFEGLAKGQVQEVGWHDVAGWLGRGGSMLGTKRTLPKGQLESIVENIRIYGIHALLVVGGFEAYEGVLQLVEARGRYEELCIVMCVIPATISNNVPGTDFSLGSDTAVNAAMESCDRIKQSASGTKRRVFIVETMGGYCGYLATVTGIAVGADAAYVFEDPFNIHDLKVNVEHMTEKMKTDIQRGLVLRNEKCHDYYTTEFLYNLYSSEGKGVFDCRTNVLGHLQQGGAPTPFDRNYGTKLGVKAMLWLSEKLREVYRKGRVFANAPDSACVIGLKKKAVAFSPVTELKKDTDFEHRMPREQWWLSLRLMLKMLAQYRISMAAYVSGELEHVTRRTLSMDKGF
What does the source list for B1?
binding (His-HDAC2, recombinant): binds; binding (His-HDAC3, recombinant): binds; binding (His-HDAC8, recombinant): binds

B2: MYC-tagged PFKL, full length, wild type (enzyme, UniProt P17858 1-780)
chain: MAAVDLEKLRASGAGKAIGVLTSGGDAQGMNAAVRAVTRMGIYVGAKVFLIYEGYEGLVEGGENIKQANWLSVSNIIQLGGTIIGSARCKAFTTREGRRAAAYNLVQHGITNLCVIGGDGSLTGANIFRSEWGSLLEELVAEGKISETTARTYSHLNIAGLVGSIDNDFCGTDMTIGTDSALHRIMEVIDAITTTAQSHQRTFVLEVMGRHCGYLALVSALASGADWLFIPEAPPEDGWENFMCERLGETRSRGSRLNIIIIAEGAIDRNGKPISSSYVKDLVVQRLGFDTRVTVLGHVQRGGTPSAFDRILSSKMGMEAVMALLEATPDTPACVVTLSGNQSVRLPLMECVQMTKEVQKAMDDKRFDEATQLRGGSFENNWNIYKLLAHQKPPKEKSNFSLAILNVGAPAAGMNAAVRSAVRTGISHGHTVYVVHDGFEGLAKGQVQEVGWHDVAGWLGRGGSMLGTKRTLPKGQLESIVENIRIYGIHALLVVGGFEAYEGVLQLVEARGRYEELCIVMCVIPATISNNVPGTDFSLGSDTAVNAAMESCDRIKQSASGTKRRVFIVETMGGYCGYLATVTGIAVGADAAYVFEDPFNIHDLKVNVEHMTEKMKTDIQRGLVLRNEKCHDYYTTEFLYNLYSSEGKGVFDCRTNVLGHLQQGGAPTPFDRNYGTKLGVKAMLWLSEKLREVYRKGRVFANAPDSACVIGLKKKAVAFSPVTELKKDTDFEHRMPREQWWLSLRLMLKMLAQYRISMAAYVSGELEHVTRRTLSMDKGF
B2 was tested. Which binding [1] did it give?
Its binding is “no binding”.

And the binding [2]?
Its binding is “binds”.

What about the binding [3] of the same binder?
Its binding is “binds”.

And the binding [4]?
Its binding is “binds”.

B3: HDAC8, endogenous in TFK1 cells (enzyme, UniProt Q9BY41 1-377)
chain: MEEPEEPADSGQSLVPVYIYSPEYVSMCDSLAKIPKRASMVHSLIEAYALHKQMRIVKPKVASMEEMATFHTDAYLQHLQKVSQEGDDDHPDSIEYGLGYDCPATEGIFDYAAAIGGATITAAQCLIDGMCKVAINWSGGWHHAKKDEASGFCYLNDAVLGILRLRRKFERILYVDLDLHHGDGVEDAFSFTSKVMTVSLHKFSPGFFPGTGDVSDVGLGKGRYYSVNVPIQDGIQDEKYYQICESVLKEVYQAFNPKAVVLQLGADTIAGDPMCSFNMTPVGIGKCLKYILQWQLATLILGGGGYNLANTARCWTYLTGVILGKTLSSEIPDHEFFTAYGPDYVLEITPSCRPDRNEPHRIQQILNYIKGNLKHVV
Which results are given for B3?
binding [5]: binds; binding [6]: binds

From article PMC12518634, “The noncanonical function of liver-type phosphofructokinase potentiates the efficacy of HDAC inhibitors in cancer” (Signal Transduction and Targeted Therapy, 2025)
